Measured values from patent US7666985B2, “HLA-A24-restricted cancer antigen peptides” (International Institute of Cancer Immunology, Inc., priority 2002, dated 2010).
Entries after “also recorded” stand apart in the source; their conditions may differ. At least one peptide structure holds a part that was inferred or is arguable (an end, a ring closure or a residue). Some entries repeat one wording, which the source may state once for all of them. Ends that are not written are not given here.

Each sequence was assayed on Jurkat-A2402/K^b cells pulsed with the peptide (assay: CTL-inducing activity (immunogenicity) in HLA-A2402/K^b transgenic mouse, 51Cr release assay). Conditions: Example 5: HLA-A24 expressing transgenic mouse immunized with peptide; effector and target cells mixed at various E/T ratios.
Assay type: in vivo
Protocol: Specifically, HER-2/neu780-788 and helper peptide were adjusted to 40 mg/ml and 20 mg/ml, respectively, in DMSO and diluted with a physiological saline to 2 mg/ml and 1 mg/ml, respectively. They were mixed with an equal amount of Freund's incomplete adjuvant (Wako Pure Chemical Industries, Ltd.) using a glass syringe to prepare a water-in-oil emulsion. The resultant preparation (200 μl) was injected into a transgenic mouse (04-1 line) subcutaneously in the base of the tail for immunization. Seven days after the initiation of experiment, the spleen was removed and grounded on the frosted part of glass slide, and splenocytes were recovered and prepared. A portion of the splenocytes undergone hemolysis treatment with an ACK buffer (0.15 M NH4Cl, 10 mM KHCO3, 0.1 mM EDTA, pH 7.2-7.4) was exposed to X ray radiation (2,000 rad), pulsed with the above-mentioned peptide (100 μg/ml) for 1 hour, and seeded into a 24-well plate at 0.7×10^6/well. Non-radiated, non-peptide-pulsed splenocytes (7×10^6/well) were added together and stimulated again at 37° C. (final concentration of peptide, 1 μg/ml). In vitro stimulation was carried out for 6 days in […] of a culture solution (CTM culture solution) containing 10% FCS, 10 mM HEPES, 20 mM L-glutamine, 1 mM sodium pyruvate, 1 mM MEM nonessential amino acid, 1% MEM vitamin and 55 μM 2-mercaptoethanol in RPMI 1640 medium.
On the other hand, Jurkat-A2402/K^b cells prepared in Reference 8 were labeled with ^51Cr (3.7 MBq/10^6 cells) and pulsed with the peptide above at 100 μg/ml for one hour. The labeling was carried out over 2 hours, and 1 hour after initiation of labeling, peptide was added to make the final concentration 100 μg/ml. Cells that were not pulsed with peptide were prepared as control target cells.
CTL-inducing activity was determined by ^51Cr release assay (J. Immunol., 159:4753, 1997), wherein the previously prepared transgenic mouse splenocyte preparation was added to said Jurkat-A2402/K^b cells as the target cells.
Immunogenicity of each antigen peptide was evaluated using the HLA-A2402/K^b transgenic mouse as constructed in aforementioned References. For the evaluation of each peptide for its immunogenicity, three transgenic mice were immunized with one peptide.
Specifically, each antigen peptide and the helper peptide were adjusted to 40 mg/ml and 20 mg/ml, respectively, in DMSO, and diluted with a physiological saline to 2 mg/ml and 1 mg/ml, respectively. They were then mixed with an equal amount of Freund's incomplete adjuvant (IFA) using a glass syringe to prepare a water-in-oil emulsion. The resultant emulsion (200 μl) was injected into the HLA-A2402/K^b transgenic mouse subcutaneously in the base of the tail for immunization. Seven days after the initiation of experiment, the spleen was removed and grounded on the frosted part of glass slide, and splenocytes were recovered and prepared. A portion of the splenocytes undergone hemolysis treatment with an ACK buffer (0.15 M NH4Cl, 10 mM KHCO3, 0.1 mM EDTA, pH 7.2-7.4) was exposed to X ray radiation (2,000 rad), then pulsed with the above-mentioned peptide (100 μg/ml) for 1 hour, and seeded into a 24-well plate at 7×10^6/well. Simultaneously, non-radiated, non-peptide-pulsed splenocytes (7×10^5/well) were added together and stimulated in vitro at 37° C. for 6 days. The in vitro stimulation was carried out in RPMI1640 medium supplemented with 10% FCS, 10 mM HEPES, 20 mM L-glutamine, 1 mM sodium pyruvate, 1 mM MEM nonessential amino acids, 1% MEM vitamin and 55 μM 2-mercaptoethanol.
Then, the test for cytotoxic activity was conducted according to the conventional manner. Jurkat-A2402/K^b cells (Reference 8), and Jurkat-A2402/K^b cells pulsed with the peptide were used as target cells (T). These cells were labeled with ^51Cr (3.7 MBq/10^6 cells) and pulsed with the peptide at 100 μg/ml for one hour (The labeling was carried out over 2 hours, and 1 hour after the initiation of labeling, the peptide was added).
RYPSCQKKF [peptide H] was tested, and the “immunogenicity (cytotoxic activity, % Specific Lysis)” value was “specific CTLs were induced”.
With RYPSAQKKF [peptide N] the “immunogenicity (cytotoxic activity, % Specific Lysis)” value was “immunogenicity equivalent to the non-substituted peptide, peptide H; also recorded: specific CTLs were induced”.
For RYPSSQKKF [peptide M], the “immunogenicity (cytotoxic activity, % Specific Lysis)” value was “immunogenicity equivalent to the non-substituted peptide, peptide H; also recorded: specific CTLs were induced”.

Same assay, conditions: HLA-A2402/K^b transgenic mice (three per peptide) immunized s.c. with peptide + helper peptide in IFA; splenocytes stimulated in vitro 6 days; peptide-pulsed vs non-pulsed Jurkat-A2402/K^b targets; E/T ratio of 80
In the case of RVPGVAPTL [peptide B], the “immunogenicity (activity to induce CTLs; cytotoxic activity, % Specific Lysis)” value is reported as “has an immunogenicity; also recorded: specific CTLs were induced”.
For RYPSCQKKF [peptide H], the “immunogenicity (activity to induce CTLs; cytotoxic activity, % Specific Lysis)” value was “have a high immunogenicity; also recorded: specific CTLs were induced”.
With RYPGVAPTL [peptide G] the “immunogenicity (activity to induce CTLs; cytotoxic activity, % Specific Lysis)” value was “higher immunogenicity than peptide B; also recorded: specific CTLs were induced”.
